# Test results reported in the supplement of paper PMC8699584.
# ± gives the standard deviation of the averaged measurements. This is a selection; strong and weak results do not stand in their true shares.
# How the values were obtained:
# Mv4-11 = assay: cell viability relative to DMSO control (bortezomib = 0%); higher = less growth inhibition; conditions: 10 nM; 72 h
# Summary of the method: (§1)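 Each plate's values were converted to percentages by linear regression, taking DMSO-treated cells as 100% and positive-control-treated cells as 0%. These plates were 384-well plates of 679 approved and investigational compounds at a single 10 nM dose, onto which acute myeloid leukemia cells were dispensed at 1000 cells per well in 50 µL for 72 h, in duplicate. Cell viability came from CellTiter-Glo luminescence on an EnVision reader.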
# Molm13 = assay: as above; conditions: 10 nM; 72 h
# Summary of the method: as §1
Compound,cell viability (Mv4-11) [%],cell viability (Molm13) [%]
COc1cc(N2CCN(C(C)=O)CC2)ccc1Nc1ncc(Cl)c(Nc2ccc(N3CCN(C(C)=O)CC3)cc2OC)n1,109.6 ± 0.24,117 ± 29
Cc1ccccc1-n1c(Cn2nc(-c3cccc(O)c3)c3c(N)ncnc32)nc2cccc(C)c2c1=O,91.2 ± 11,88.9 ± 6.4
